Data: PMC4881023, “SALM5 trans-synaptically interacts with LAR-RPTPs in a splicing-dependent manner to regulate synapse development” (Scientific Reports, 2016)
Results are given in words; binding and its absence hold for the method and conditions named.

B1: SALM4-Ecto-pDis (domain or fragment, UniProt Q8BLY3 17-539)
chain: SSPPQPAISSPCPRRCRCQTQSMPLSVLCPGAGLLFVPPSLDRRAAELRLADNFIAAVRRRDLANMTGLLHLSLSRNTIRHVAAGAFADLRALRALHLDGNRLTSLGEGQLRGLVNLRHLILSNNQLAALAAGALDDCAETLEDLDLSYNNLEQLPWEALGRLGNVNTLGLDHNLLASVPAGAFSRLHKLARLDMTSNRLTTIPPDPLFSRLPLLARPRGSPASALVLAFGGNPLHCNCELVWLRRLAREDDLEACASPPALGGRYFWAVGEEEFVCEPPVVTHRSPPLAVPAGRPAALRCRAVGDPEPRVRWVSPQGRLLGNSSRARAFPNGTLELLVTEPEDGGTFTCIAANAAGEATAAVELTVGPPPPPQLANSTSCDPPRDGEPDALTPPSAASASAKVADTVAPTDRGVQVTEHGATAALVQWPDQRPVPGIRMYQIQYNSSADDILVYRMIPADSRSFLLTDLASGRTYDLCVLAVYEDSATGLTATRPVGCARFSTEPALRPCAAPHAPFLGGTM
B2: SALM5-Ecto-pDis (domain or fragment, UniProt Q8BXA0 18-529)
chain: QICPKRCVCQILSPNLATLCAKKGLLFVPPNIDRRTVELRLADNFVTNIKRKDFANMTSLVDLTLSRNTISFITPHAFADLRNLRALHLNSNRLTKITNDMFSGLSNLHHLILNNNQLTLISSTAFDDVFALEELDLSYNNLETIPWDAVEKMVSLHTLSLDHNMIDNIPKGTFSHLHKMTRLDVTSNKLQKLPPDPLFQRAQVLATSGIISPSTFALSFGGNPLHCNCELLWLRRLSREDDLETCASPALLTGRYFWSIPEEEFLCEPPLITRHTHEMRVLEGQRATLRCKARGDPEPAIHWISPEGKLISNATRSLVYDNGTLDILITTVKDTGAFTCIASNPAGEATQTVDLHIIKLPHLLNSTNHIHEPDPGSSDISTSTKSGSNASSSNGDTKMSQDKIVVAEATSSTALLKFNFQRNIPGIRMFQIQYNGTYDDTLVYRMIPPTSKTFLVNNLASGTMYDLCVLAIYDDGITSLTATRVVGCIQFTTEQDYVRCHFMQSQFLGGTM

Columns and labels:
SALM4-Ecto-pDis = SALM4-Ecto-pDis (UniProt Q8BLY3); experiment: cell aggregation assay; two groups of transfected L cells (EGFP + SALM construct; DsRed + LAR-RPTP construct) trypsinized, resuspended in DMEM, mixed and rotated at room temperature for 2 hours; average aggregate size
[1] = biological target: SALM5-Ecto-pDis (not stated (mouse and human SALM5 are named for other constructs)) (UniProt Q8BXA0); experiment: as above

| Binder | binding (SALM4-Ecto-pDis) | binding [1] |
| --- | --- | --- |
| B1 | no binding | – |
| B2 | – | no binding |
